Measured values: publication doi:10.1101/2020.09.01.276469

Tests used:
[1] = molecular target: T1, C-terminal half of TPX2 (amino acids 319-716) (Xenopus laevis) (UniProt Q6NUF4); assay: BLI
T1 sequence: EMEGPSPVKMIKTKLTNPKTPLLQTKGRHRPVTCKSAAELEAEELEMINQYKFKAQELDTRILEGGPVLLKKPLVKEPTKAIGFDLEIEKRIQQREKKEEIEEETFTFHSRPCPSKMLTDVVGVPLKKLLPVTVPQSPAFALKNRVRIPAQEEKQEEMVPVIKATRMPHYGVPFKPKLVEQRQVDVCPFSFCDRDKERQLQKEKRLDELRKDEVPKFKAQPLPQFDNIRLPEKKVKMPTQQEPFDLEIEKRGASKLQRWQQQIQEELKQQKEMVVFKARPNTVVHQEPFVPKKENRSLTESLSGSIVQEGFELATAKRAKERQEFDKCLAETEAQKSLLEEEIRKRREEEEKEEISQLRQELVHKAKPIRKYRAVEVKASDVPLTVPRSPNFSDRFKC

[2] = molecular target: T2, TPX2 amino acids 1-99 (Xenopus laevis) (UniProt Q6NUF4); assay: BLI
T2 sequence: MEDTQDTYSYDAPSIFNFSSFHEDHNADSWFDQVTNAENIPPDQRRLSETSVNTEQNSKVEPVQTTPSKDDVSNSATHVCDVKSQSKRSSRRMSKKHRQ

In the case of “importin-αΔIBB (importin-α without the importin-β binding domain) (Xenopus laevis) (domain or fragment)”, the binding [1] is reported as “binds weakly” and the binding [2] is reported as “binds weakly”.

No constants are given. Whether binding was seen depends on the method and setting. Binding calls can cover weak binding; strength is not graded here.
